According to paper doi:10.1101/2025.11.25.690242:
These are yes or no findings as the source states them, for the method shown. Binding seen in cells or lysates may run through a third protein.

Sequences of proteins named here, by UniProt entry; tags and fusion partners are left off.
UniProt P97302: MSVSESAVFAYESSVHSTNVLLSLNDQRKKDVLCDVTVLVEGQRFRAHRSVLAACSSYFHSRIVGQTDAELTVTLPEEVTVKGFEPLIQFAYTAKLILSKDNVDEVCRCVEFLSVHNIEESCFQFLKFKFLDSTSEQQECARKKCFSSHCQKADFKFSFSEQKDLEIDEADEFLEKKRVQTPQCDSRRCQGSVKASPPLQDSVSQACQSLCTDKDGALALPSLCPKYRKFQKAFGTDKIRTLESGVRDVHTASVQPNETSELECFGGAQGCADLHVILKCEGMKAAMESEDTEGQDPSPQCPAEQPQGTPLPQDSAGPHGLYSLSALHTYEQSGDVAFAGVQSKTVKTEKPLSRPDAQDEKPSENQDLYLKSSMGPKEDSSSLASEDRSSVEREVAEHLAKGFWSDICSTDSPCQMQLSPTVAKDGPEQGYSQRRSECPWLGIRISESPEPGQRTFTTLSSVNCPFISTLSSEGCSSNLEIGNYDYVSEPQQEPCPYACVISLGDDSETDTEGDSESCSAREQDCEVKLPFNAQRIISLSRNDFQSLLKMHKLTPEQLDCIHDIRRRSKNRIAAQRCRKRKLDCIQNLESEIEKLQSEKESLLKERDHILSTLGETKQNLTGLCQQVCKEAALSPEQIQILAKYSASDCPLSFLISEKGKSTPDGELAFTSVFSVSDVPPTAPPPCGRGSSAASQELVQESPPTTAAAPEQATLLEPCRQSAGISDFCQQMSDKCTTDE

Biological target: BTB and CNC homology factor 1 (BACH1) (mouse (endogenous in murine thymocytes)) (UniProt P97302)
Assay: co-IP

binding: no binding
B1: Special AT-rich sequence-binding protein 1 (SATB1) (protein, UniProt Q60611 1-764)
chain: MDHLNEATQGKEHSEMSNNVSDPKGPPAKIARLEQNGSPLGRGRLGSTGGKMQGVPLKHSGHLMKTNLRKGTMLPVFCVVEHYENAIEYDCKEEHAEFVLVRKDMLFNQLIEMALLSLGYSHSSAAQAKGLIQVGKWNPVPLSYVTDAPDATVADMLQDVYHVVTLKIQLHSCPKLEDLPPEQWSHTTVRNALKDLLKDMNQSSLAKECPLSQSMISSIVNSTYYANVSAAKCQEFGRWYKHFKKTKDMMVEMDSLSELSQQGANHVNFGQQPVPGNTAEQPPSPAQLSHGSQPSVRTPLPNLHPGLVSTPISPQLVNQQLVMAQLLNQQYAVNRLLAQQSLNQQYLNHPPPVSRSMNKPLEQQVSTNTEVSSEIYQWVRDELKRAGISQAVFARVAFNRTQGLLSEILRKEEDPKTASQSLLVNLRAMQNFLQLPEAERDRIYQDERERSLNAASAMGPAPLLSTPPSRPPQVKTATLATERNGKPENNTMNINASIYDEIQQEMKRAKVSQALFAKVAATKSQGWLCELLRWKEDPSPENRTLWENLSMIRRFLSLPQPERDAIYEQESNAVHHHGDRPPHIIHVPAEQIQQQQQQQQQQQQQQQPPPPPPQPQPQPQAGPRLPPRQPTVASSAESDEENRQKTRPRTKISVEALGILQSFIQDVGLYPDEEAIQTLSAQLDLPKYTIIKFFQNQRYYLKHHGKLKDNSGLEVDVAEYKDEELLKDLEESVQDKNANTLFSVKLEEELSVEGSTDVNADLKD
